No constants are given. Whether binding was seen depends on the method and setting. Binding seen in cells or lysates may run through a third protein. Here binding means that the protein was enriched with, or labelled near, the bait; the list need not be complete. Where a sequence is shown, tags or fusion partners need not be part of it.
Target: T1, FLAG-tagged GLIS2 (GLIS family zinc finger protein 2) (mouse) (UniProt Q8VDL9)
T1 sequence: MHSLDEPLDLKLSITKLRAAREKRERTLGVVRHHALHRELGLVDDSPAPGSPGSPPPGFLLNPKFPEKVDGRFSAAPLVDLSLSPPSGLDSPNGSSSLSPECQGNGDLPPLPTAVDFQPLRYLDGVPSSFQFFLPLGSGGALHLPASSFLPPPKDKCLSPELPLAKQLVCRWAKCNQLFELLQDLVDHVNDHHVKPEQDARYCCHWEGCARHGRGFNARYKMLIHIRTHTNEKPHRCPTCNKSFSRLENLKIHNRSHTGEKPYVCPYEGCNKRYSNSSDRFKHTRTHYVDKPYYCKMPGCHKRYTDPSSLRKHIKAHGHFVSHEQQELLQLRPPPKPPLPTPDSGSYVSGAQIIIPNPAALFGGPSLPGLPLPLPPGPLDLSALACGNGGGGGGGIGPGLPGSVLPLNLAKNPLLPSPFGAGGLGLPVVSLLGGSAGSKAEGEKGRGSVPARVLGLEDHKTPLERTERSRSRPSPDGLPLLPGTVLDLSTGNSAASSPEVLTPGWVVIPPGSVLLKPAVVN
Assay: affinity purification with mass spectrometry

By UniProt entry, the sequences of proteins in these tests, tags left out.
UniProt Q9NYF8: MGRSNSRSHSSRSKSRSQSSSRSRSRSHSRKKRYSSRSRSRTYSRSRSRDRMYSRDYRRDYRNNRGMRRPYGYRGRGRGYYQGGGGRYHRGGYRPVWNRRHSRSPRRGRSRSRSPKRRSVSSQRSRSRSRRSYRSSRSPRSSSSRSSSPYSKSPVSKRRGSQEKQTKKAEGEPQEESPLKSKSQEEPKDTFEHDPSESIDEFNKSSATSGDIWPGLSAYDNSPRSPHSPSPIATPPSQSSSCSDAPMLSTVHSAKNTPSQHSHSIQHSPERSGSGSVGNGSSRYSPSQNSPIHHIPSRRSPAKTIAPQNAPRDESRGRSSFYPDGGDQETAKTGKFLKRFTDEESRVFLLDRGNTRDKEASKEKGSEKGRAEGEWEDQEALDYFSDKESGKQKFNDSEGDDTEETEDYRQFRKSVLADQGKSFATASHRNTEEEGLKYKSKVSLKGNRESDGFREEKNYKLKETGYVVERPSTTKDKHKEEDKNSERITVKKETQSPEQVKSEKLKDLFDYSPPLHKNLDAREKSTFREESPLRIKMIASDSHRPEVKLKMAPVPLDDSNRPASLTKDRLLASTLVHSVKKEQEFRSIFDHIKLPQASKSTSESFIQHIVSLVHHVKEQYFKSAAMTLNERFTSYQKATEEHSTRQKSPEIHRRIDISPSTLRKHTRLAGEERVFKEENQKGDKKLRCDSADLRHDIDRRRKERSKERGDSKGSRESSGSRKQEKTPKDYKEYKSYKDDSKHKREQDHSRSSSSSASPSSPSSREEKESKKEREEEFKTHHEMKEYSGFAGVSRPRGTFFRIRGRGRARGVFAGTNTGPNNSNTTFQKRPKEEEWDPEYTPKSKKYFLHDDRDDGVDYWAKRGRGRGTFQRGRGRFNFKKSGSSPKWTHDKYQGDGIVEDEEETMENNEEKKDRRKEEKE
UniProt Q86WJ1: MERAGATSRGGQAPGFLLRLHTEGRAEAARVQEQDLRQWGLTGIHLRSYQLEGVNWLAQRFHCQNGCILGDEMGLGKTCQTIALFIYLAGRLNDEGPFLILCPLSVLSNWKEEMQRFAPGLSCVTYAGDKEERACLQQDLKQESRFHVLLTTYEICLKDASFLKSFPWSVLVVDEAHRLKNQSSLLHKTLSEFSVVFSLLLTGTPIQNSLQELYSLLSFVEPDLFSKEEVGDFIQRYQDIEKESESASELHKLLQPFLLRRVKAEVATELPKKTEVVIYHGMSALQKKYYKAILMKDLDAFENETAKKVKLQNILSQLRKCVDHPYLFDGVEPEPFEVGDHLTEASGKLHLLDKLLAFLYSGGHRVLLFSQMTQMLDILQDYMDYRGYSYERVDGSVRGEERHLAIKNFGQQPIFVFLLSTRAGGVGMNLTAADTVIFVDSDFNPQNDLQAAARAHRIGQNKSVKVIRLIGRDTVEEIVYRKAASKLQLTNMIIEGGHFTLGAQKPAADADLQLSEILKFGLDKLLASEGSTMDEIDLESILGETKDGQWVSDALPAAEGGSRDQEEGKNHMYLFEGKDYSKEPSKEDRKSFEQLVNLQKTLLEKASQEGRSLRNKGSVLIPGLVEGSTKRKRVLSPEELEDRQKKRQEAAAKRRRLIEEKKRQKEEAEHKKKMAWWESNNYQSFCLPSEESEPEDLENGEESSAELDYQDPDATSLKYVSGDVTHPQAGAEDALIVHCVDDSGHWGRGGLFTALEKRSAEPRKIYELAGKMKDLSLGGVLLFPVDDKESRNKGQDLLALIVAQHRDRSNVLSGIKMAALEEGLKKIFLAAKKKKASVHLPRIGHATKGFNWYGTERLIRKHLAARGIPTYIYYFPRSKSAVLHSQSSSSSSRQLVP
UniProt Q14839: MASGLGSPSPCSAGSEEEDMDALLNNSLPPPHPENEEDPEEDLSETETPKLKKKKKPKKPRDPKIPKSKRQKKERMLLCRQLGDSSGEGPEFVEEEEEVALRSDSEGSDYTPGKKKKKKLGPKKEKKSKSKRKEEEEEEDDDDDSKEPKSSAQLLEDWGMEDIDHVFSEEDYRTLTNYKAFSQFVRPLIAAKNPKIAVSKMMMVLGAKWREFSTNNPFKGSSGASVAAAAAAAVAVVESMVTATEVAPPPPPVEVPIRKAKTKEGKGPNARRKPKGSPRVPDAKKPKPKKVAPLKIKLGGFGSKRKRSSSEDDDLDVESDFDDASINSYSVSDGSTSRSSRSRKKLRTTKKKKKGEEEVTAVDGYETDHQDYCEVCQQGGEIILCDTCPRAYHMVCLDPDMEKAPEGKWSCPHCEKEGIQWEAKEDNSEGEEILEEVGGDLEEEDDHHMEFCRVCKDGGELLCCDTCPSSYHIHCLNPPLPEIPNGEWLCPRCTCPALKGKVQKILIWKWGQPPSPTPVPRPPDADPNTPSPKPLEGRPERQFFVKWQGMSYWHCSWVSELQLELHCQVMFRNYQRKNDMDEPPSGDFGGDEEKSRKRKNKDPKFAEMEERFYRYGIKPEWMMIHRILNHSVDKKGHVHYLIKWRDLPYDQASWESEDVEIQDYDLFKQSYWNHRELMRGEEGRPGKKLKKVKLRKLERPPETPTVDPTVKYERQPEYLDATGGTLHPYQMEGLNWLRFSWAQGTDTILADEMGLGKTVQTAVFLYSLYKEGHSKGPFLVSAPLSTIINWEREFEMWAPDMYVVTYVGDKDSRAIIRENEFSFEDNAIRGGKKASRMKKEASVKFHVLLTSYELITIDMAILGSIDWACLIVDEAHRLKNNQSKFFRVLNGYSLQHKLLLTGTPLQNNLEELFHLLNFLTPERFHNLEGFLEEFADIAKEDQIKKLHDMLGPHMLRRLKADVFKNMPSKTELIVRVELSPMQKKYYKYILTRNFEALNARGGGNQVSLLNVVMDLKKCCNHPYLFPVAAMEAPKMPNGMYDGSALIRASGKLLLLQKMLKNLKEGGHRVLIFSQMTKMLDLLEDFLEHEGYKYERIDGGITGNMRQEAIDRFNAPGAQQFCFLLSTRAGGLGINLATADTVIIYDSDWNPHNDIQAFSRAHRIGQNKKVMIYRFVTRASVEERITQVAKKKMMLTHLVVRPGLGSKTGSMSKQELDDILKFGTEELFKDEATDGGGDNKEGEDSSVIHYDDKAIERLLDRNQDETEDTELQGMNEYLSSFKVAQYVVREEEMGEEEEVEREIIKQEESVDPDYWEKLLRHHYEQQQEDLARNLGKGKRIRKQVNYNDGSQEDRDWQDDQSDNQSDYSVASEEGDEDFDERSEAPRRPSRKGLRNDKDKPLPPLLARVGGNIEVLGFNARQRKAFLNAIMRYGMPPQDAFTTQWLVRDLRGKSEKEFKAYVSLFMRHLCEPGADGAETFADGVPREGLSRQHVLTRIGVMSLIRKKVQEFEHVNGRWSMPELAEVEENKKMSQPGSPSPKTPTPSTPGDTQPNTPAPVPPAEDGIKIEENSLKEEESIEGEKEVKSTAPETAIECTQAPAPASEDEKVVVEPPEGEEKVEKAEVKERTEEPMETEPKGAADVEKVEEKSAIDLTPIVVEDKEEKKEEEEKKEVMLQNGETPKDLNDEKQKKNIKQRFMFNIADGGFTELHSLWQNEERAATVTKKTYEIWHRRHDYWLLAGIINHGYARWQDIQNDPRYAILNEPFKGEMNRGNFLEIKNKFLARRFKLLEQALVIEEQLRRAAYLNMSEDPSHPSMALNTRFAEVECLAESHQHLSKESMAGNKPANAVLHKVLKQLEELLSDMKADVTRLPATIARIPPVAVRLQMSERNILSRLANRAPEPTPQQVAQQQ
UniProt P12004: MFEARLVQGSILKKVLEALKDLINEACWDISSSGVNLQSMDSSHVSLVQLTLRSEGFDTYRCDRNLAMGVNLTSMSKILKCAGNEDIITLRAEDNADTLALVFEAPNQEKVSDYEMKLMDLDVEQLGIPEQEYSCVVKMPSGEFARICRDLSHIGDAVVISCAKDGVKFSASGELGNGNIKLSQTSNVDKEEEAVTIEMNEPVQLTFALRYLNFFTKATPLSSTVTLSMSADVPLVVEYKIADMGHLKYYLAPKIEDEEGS
UniProt O00571: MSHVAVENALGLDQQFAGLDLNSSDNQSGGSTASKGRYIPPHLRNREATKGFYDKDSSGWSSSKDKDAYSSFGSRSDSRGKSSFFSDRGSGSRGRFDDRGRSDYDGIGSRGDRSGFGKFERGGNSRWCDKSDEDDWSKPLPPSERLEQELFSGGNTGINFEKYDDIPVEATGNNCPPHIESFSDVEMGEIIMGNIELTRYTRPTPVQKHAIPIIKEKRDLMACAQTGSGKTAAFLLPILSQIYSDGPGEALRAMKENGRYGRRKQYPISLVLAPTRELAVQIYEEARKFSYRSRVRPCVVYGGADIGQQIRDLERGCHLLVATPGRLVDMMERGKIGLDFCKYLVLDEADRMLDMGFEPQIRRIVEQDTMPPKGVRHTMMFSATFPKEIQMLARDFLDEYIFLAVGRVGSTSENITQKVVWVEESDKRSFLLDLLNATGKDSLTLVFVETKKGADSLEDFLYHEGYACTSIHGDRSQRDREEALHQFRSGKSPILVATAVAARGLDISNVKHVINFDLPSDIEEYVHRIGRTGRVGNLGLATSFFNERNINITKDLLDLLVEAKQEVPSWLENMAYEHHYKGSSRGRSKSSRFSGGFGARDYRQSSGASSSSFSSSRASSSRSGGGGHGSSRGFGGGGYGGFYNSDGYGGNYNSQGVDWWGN
UniProt P09874: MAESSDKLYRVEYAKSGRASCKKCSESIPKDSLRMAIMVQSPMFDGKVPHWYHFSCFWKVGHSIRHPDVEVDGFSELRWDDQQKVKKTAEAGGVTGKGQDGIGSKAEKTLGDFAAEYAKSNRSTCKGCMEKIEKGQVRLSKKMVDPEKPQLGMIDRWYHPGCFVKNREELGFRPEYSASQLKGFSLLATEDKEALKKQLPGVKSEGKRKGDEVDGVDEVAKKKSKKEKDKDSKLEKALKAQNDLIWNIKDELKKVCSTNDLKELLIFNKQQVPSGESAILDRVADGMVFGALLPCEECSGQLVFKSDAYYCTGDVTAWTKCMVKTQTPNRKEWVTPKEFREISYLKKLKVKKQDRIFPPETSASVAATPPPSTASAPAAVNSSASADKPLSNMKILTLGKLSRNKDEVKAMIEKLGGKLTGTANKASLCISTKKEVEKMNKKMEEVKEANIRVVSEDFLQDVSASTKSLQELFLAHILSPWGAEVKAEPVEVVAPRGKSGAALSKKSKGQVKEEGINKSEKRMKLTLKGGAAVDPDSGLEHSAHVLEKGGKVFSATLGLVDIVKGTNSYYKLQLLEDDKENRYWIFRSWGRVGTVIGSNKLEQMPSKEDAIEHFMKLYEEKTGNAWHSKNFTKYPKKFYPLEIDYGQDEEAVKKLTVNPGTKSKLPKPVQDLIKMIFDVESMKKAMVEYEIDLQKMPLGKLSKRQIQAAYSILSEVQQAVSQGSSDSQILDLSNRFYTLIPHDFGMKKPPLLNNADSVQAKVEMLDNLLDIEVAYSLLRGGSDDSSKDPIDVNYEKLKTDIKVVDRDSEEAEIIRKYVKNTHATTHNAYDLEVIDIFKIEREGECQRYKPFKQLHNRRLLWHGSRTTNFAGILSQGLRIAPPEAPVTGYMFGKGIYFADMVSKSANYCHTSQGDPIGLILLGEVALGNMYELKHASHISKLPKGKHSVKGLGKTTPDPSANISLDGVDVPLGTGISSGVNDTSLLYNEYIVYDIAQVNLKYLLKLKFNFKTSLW

Substance	binding
Bcl-2-associated transcription factor 1 (from UniProt Q9NYF8 1-920)	binds
Chromodomain-helicase-DNA-binding protein 1-like (from UniProt Q86WJ1 1-897)	binds
Chromodomain-helicase-DNA-binding protein 4 (from UniProt Q14839 1-1912)	binds
Proliferating cell nuclear antigen (from UniProt P12004 1-261)	binds

Continued, values first:

binding	Substance
binds	ATP-dependent RNA helicase DDX3X (from UniProt O00571 1-662)
binds	Poly[ADP-ribose]polymerase 1 (from UniProt P09874 1-1014)
